# From publication doi:10.1101/488536
# No constants are given. Whether binding was seen depends on the method and setting. Some binding calls cover weakened binding; strength is not graded here. Tags and fused reporters may be left off the sequences shown.
# T1: ICR4, pGBT-ICR4 two-hybrid fusion (Arabidopsis) (UniProt Q9M9F9)
# T1 sequence: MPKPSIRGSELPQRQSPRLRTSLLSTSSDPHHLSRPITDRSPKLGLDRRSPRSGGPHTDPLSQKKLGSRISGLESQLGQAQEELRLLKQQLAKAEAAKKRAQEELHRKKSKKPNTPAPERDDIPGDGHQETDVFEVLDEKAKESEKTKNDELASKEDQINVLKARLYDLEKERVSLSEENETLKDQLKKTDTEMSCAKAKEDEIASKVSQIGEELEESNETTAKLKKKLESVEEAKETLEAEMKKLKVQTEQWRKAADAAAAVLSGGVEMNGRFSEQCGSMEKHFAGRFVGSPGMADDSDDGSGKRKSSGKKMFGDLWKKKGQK
# T2: ICR2, pGBT-ICR2 two-hybrid fusion (Arabidopsis) (UniProt Q9ZQC5)
# T2 sequence: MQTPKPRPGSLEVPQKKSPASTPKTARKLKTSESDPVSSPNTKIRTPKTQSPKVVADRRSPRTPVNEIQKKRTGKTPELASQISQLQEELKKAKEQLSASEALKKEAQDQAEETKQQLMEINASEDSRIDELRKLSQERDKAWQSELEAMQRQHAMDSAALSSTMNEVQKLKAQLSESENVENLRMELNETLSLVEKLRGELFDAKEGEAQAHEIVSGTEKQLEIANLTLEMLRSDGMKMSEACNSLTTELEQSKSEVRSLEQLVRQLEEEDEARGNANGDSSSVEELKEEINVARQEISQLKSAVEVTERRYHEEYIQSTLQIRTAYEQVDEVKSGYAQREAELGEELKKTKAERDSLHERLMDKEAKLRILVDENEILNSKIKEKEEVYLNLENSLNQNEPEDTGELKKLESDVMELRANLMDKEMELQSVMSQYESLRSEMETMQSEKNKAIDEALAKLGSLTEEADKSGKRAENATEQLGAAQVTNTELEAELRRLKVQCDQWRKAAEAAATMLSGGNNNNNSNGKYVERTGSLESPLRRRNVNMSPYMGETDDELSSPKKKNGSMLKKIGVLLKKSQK
# T3: ICR1 (Interactor of Constitutively active ROP 1), pGBT-ICR1 two-hybrid fusion (Arabidopsis) (UniProt Q8LE98)
# T3 sequence: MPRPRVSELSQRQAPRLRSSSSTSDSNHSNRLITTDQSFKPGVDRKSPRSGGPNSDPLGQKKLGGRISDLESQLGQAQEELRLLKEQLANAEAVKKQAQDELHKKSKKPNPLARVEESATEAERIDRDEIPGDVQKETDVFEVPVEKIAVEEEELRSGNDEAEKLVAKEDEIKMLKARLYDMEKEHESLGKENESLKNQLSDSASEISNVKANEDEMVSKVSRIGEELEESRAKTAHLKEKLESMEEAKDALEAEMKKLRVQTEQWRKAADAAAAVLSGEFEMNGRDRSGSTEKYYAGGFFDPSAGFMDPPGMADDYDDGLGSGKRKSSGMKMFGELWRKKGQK
# T4: GST-ICR1 (Arabidopsis) (UniProt Q8LE98)
# T4 sequence: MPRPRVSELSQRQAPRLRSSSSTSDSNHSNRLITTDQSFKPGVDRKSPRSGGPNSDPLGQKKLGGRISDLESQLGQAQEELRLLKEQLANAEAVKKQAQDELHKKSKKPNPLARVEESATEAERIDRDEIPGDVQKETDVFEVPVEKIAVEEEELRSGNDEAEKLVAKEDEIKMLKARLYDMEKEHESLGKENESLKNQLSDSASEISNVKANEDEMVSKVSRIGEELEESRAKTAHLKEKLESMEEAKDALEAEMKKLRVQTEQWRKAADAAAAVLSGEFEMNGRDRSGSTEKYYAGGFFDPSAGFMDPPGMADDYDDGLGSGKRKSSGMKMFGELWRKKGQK
# Assays:
# [1] = molecular target: T1, ICR4, pGBT-ICR4 two-hybrid fusion (Arabidopsis); assay: two-hybrid
# [2] = molecular target: T2, ICR2, pGBT-ICR2 two-hybrid fusion (Arabidopsis); assay: two-hybrid
# [3] = molecular target: T3, ICR1 (Interactor of Constitutively active ROP 1), pGBT-ICR1 two-hybrid fusion (Arabidopsis); assay: two-hybrid
# GST-ICR1 (Arabidopsis) = molecular target: T4, GST-ICR1 (Arabidopsis); assay: pull-down
binding [1],binding [2],binding [3],binding (GST-ICR1 (Arabidopsis)),Binder
no binding,no binding,binds,–,"CMI1 (Ca^2+ sensor Modulator of ICR1), pGAD-CMI1 two-hybrid fusion (protein, UniProt O81831 1-130) MASPKSPTRPTQQNPQPNFHDFLPTMAGNLGGEGLIGELCNGFELLMDREKGVITFESLRRNAAAVLGLGDLTDEDVRCMIKEGDFDCDGALNQMEFCVLMFRLSPDLMEASRCLVTEVIEEEFGFTRRH"
–,–,–,no binding (condition: with 10 mM EGTA),"His6-CMI1 (protein, UniProt O81831 1-130) MASPKSPTRPTQQNPQPNFHDFLPTMAGNLGGEGLIGELCNGFELLMDREKGVITFESLRRNAAAVLGLGDLTDEDVRCMIKEGDFDCDGALNQMEFCVLMFRLSPDLMEASRCLVTEVIEEEFGFTRRH"
